Measurements: patent US20060057198A1, “Drug delivery from embolic agents” (BIOCOMPATIBLES UK LIMITED, priority 2003, published 2006)

Settings: over 168 hours, 30 mg/ml in ethanol, low or high AMPS

uptake: 35-40 mg naproxen/ml of spheres
Compound: COc1ccc2cc([C@H](C)C(=O)O)ccc2c1 [Naproxen]
